Reference: patent US12729225B2, “Non-canonical SWI/SNF complex and uses thereof” (Dana-Farber Cancer Institute, Inc., priority 2018, dated 2026)

Tested on: mSWI/SNF complexes
Test: mSWI/SNF complex purification with HA-tagged baits and mass spectrometry (peptide counts)
Set-up: species or system human
[1] = 293_HA-BRD7: HA-BRD7 bait purification, total peptide count per co-purified protein
[2] = 293_HA-BRD7: HA-BRD7 bait purification, unique peptide count per co-purified protein
[3] = 293_HA-DPF2 purification, total peptides
[4] = 293_HA-DPF2 purification, unique peptides
[5] = total peptide count of the co-purified protein, 293_HA-BRD9 (HA-BRD9 bait, mass spectrometry), Table 3b
[6] = unique peptide count of the co-purified protein, 293_HA-BRD9 (HA-BRD9 bait, mass spectrometry), Table 3b
[7] = 293_HA-BRD7 bait purification, mass spectrometry, total peptide count per identified protein
[8] = 293_HA-BRD7 bait purification, mass spectrometry, unique peptide count per identified protein
[9] = 293_HA-BRD7 bait purification, mass spectrometry, total peptides per co-purified protein
[10] = 293_HA-BRD7 bait purification, mass spectrometry, unique peptides per co-purified protein

Substance	Total [1]	Unique [2]	Total [7]	Unique [8]	Total [9]	Unique [10]	also measured
MSH6	20	18					Total [3]: 1; Unique [4]: 1; Total [5]: 7; Unique [6]: 7
MYH11			1	1			
NCAPH2			1	1			
NIFK	12	12					
NONO	7	6					
NPM1	16	11					
NSA2					3	3	
NUDT21	6	6					
NUP188			1	1			
NUP205	8	7					Total [5]: 5; Unique [6]: 5
NUP210					2	2	
P4HB			1	1			
PABPC1	9	9					
PCBP1	10	10					Total [5]: 2; Unique [6]: 2
PCID2			1	1			
PDIA6	4	4					
PELO			1	1			
PELP1					1	1	
PGRMC1					3	3	

Substance	Total [1]	Unique [2]	Total [7]	Unique [8]	Total [9]	Unique [10]	also measured
PHB2	11	11					
PI4KA			1	1			
PKM	6	6					
POTEKP					5	3	Total [3]: 3; Unique [4]: 3
PPIB					2	2	
PPP1CA					3	3	
PRDX3	4	4					
PRKAR2A			1	1			
PRKDC	66	64					Total [5]: 31; Unique [6]: 27
PRPF8	22	22					Total [3]: 3; Unique [4]: 3; Total [5]: 3; Unique [6]: 3
PRSS1							Total [5]: 3; Unique [6]: 1
PSIP1			1	1			
PSMA2			1	1			
PSMC3			1	1			
PSMC5			1	1			
PSMD1					2	2	
PSPC1					2	1	
PTBP1	9	9					
RAB1A			1	1			

Substance	Total [1]	Unique [2]	Total [7]	Unique [8]	Total [9]	Unique [10]	also measured
RAB7A			1	1			
RAD50					2	2	
RBM25					4	4	
REV3L			1	1			
RFC2					3	3	
RFC3			1	1			
RFC4	8	7					
RFC5					4	4	
RIF1					2	2	
RPL22L1					1	1	
SCFD1			1	1			
SDHA					4	3	
SEC61A1	5	4					
SLC7A1					2	2	
SLC7A5					2	2	
SLC25A1	8	8					
SLC27A4			1	1			
SMARCA2	146	85					Total [3]: 130; Unique [4]: 74; Total [5]: 49; Unique [6]: 27
SMARCA5			1	1			
